Source: the supplement of paper PMC10849652
This is one part of the list. Residues, ends and D or L forms follow the SMILES beside them. *: point of attachment. Cbz = O=C(OCc1ccccc1)*

Protein sequences, listed by entry. Tags and fused reporters are not part of them. Lines headed by an entry give the natural chain unless they say otherwise; changes in a name come on top.
UniProt Q01415: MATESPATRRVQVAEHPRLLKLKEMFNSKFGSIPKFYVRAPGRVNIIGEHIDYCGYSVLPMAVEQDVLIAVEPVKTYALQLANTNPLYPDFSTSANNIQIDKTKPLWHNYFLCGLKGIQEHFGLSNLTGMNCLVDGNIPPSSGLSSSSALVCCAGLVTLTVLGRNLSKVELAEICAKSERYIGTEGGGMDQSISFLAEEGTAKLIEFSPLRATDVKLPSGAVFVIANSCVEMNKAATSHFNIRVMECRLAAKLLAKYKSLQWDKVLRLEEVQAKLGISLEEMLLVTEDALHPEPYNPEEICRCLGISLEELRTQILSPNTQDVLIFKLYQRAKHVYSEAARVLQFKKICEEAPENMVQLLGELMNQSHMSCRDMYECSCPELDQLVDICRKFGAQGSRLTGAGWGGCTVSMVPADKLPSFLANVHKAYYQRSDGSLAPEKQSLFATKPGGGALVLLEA
UniProt Q9UN86: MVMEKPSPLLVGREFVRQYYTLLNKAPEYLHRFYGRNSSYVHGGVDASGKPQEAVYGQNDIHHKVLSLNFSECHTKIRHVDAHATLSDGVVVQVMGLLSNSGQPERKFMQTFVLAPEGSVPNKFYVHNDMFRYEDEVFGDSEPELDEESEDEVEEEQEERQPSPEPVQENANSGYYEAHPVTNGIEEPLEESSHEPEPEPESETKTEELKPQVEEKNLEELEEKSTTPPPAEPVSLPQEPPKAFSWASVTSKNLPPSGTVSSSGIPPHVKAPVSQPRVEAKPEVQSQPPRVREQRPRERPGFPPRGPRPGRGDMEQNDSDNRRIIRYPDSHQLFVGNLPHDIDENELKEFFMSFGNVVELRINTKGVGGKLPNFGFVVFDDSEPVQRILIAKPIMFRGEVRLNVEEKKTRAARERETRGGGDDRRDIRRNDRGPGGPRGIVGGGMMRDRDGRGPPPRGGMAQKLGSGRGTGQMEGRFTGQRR
UniProt Q16595: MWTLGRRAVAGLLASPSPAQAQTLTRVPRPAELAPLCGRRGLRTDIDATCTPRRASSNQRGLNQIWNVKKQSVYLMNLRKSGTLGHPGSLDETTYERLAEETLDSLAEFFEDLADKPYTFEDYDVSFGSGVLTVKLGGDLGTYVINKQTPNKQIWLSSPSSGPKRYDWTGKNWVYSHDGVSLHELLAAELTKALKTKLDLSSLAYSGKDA
UniProt Q6ZNA5: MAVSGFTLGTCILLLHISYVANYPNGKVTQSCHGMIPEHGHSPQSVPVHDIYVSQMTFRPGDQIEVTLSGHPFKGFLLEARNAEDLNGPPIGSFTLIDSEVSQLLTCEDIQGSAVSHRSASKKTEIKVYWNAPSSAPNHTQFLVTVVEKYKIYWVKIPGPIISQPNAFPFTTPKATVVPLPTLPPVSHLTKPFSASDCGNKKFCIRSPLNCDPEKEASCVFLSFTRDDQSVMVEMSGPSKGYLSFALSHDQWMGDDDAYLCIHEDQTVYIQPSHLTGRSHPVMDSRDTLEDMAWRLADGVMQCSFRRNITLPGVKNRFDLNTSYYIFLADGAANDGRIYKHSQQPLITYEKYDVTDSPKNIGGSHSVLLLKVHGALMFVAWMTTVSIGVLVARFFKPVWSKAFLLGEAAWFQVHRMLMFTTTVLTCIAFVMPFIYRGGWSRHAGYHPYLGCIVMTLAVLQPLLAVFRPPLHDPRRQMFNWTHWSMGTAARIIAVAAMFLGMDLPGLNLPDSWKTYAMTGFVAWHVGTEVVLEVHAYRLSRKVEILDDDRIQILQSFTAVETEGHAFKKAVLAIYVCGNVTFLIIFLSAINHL
UniProt Q92820: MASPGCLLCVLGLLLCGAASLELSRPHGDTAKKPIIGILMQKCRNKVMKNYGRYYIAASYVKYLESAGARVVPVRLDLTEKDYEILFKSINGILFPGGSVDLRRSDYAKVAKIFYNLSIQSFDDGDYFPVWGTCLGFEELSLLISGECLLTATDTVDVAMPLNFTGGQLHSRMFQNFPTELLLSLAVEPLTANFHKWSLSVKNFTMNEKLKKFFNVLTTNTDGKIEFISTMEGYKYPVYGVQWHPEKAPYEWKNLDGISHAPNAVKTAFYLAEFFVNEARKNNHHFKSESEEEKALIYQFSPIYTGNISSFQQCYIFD
UniProt P04406: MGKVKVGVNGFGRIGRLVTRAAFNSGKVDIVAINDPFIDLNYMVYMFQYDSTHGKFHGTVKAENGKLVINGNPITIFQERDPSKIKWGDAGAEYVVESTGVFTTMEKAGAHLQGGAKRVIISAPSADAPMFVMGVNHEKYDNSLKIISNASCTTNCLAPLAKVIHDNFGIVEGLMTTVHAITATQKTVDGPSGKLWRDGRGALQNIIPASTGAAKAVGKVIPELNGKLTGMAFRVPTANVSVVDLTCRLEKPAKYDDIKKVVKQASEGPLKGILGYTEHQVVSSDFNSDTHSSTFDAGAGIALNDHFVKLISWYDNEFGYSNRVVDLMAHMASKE
UniProt P48506: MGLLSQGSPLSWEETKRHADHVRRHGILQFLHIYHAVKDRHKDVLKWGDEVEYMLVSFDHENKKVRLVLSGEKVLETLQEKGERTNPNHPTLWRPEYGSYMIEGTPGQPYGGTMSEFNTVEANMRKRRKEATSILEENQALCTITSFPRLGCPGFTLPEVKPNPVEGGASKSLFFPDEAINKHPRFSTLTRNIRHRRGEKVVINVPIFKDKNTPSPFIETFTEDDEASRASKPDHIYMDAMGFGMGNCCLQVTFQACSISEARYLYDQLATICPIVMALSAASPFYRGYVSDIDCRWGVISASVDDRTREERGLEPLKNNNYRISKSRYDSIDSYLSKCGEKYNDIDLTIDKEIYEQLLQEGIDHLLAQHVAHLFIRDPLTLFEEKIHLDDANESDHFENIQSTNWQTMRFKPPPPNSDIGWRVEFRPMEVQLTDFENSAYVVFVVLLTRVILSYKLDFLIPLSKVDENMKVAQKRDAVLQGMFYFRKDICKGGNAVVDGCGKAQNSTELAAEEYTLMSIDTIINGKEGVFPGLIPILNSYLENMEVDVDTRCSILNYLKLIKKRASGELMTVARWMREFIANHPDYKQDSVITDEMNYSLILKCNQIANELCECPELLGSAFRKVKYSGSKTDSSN
UniProt P30047: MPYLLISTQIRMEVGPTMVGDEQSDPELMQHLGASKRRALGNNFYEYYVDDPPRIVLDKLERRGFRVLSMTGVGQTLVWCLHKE
UniProt Q8NCL4: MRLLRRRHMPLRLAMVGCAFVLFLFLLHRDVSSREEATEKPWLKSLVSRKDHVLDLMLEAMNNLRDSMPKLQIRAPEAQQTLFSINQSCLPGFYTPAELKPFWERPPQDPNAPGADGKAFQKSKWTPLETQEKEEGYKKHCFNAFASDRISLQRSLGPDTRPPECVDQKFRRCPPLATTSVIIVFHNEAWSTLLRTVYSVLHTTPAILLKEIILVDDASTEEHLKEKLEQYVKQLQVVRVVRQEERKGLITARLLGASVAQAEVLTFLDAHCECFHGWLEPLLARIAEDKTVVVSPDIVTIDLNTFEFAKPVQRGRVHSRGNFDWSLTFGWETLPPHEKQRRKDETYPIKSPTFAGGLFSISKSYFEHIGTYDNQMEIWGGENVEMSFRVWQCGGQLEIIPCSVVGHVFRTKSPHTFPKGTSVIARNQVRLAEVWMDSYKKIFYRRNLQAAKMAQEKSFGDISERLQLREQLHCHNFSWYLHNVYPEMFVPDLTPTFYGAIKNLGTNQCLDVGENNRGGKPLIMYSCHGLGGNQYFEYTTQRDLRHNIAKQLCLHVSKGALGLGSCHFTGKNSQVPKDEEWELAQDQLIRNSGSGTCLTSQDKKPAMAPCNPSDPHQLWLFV
UniProt Q495W5: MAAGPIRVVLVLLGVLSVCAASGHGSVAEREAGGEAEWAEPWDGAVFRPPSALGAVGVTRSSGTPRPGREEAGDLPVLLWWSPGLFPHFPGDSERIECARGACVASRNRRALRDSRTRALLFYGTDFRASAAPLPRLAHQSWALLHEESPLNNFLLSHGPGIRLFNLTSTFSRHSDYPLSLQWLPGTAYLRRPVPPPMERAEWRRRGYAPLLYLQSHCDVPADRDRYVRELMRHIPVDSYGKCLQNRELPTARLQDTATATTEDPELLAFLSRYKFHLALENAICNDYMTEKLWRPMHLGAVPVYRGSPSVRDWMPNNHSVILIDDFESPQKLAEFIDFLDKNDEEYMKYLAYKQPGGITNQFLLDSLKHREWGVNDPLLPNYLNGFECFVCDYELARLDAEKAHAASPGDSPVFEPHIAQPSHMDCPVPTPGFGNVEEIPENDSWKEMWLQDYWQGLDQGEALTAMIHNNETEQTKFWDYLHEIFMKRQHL
UniProt Q9BQS8: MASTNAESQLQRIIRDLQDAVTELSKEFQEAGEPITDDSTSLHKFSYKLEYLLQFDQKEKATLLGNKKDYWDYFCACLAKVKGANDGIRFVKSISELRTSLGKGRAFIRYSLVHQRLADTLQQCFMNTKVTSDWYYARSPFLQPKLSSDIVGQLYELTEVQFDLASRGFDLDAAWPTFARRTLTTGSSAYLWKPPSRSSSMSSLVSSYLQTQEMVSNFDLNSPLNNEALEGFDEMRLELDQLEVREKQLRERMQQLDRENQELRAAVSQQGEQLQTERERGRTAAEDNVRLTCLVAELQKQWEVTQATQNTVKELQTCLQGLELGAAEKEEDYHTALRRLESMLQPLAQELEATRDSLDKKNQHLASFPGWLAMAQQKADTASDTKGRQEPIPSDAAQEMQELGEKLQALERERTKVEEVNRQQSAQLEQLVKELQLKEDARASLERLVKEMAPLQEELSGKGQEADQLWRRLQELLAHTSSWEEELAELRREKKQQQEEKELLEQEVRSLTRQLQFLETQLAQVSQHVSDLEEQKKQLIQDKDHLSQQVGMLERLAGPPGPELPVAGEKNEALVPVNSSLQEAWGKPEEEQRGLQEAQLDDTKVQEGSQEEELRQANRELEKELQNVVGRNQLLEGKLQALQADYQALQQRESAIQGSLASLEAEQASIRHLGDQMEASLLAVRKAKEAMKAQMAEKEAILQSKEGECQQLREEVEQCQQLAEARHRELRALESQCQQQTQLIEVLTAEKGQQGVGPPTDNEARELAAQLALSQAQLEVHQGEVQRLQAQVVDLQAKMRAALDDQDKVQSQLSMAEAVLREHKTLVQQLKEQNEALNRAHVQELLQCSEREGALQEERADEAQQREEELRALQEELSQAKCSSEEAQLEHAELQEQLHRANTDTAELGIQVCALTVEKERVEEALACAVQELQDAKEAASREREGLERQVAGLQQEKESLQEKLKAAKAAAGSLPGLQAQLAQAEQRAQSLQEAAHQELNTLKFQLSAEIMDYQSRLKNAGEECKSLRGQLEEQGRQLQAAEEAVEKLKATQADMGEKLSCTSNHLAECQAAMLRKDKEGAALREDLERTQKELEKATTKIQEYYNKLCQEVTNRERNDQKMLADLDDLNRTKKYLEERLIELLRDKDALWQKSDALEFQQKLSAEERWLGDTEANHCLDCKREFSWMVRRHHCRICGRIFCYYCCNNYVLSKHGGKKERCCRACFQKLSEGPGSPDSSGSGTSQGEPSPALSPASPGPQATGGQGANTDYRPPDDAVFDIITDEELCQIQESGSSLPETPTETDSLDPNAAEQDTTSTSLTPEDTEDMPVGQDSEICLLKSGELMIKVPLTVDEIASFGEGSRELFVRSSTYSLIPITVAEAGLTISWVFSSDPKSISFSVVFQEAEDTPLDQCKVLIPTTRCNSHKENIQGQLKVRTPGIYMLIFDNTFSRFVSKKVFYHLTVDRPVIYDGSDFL
UniProt Q9H3K2: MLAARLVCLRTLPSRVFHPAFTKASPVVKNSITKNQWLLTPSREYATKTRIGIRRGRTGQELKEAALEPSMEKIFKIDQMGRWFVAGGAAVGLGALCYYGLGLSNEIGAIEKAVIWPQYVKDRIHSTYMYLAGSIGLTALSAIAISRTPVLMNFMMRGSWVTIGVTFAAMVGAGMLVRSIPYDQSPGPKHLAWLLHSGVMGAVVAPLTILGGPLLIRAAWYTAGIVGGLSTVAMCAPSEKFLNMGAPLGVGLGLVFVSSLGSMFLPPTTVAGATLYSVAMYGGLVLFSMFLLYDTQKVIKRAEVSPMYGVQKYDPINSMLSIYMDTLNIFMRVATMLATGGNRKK
UniProt P55789: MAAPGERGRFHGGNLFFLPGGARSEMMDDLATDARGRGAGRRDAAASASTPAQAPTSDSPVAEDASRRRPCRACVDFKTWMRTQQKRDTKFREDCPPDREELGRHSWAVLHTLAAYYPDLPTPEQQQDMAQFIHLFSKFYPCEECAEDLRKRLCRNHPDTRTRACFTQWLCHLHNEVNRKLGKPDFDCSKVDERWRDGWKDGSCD

compound: CC(C)C1=C2N=C(C=C(N2N=C1)NCC3=CC=CC=C3)NCCCCCCN; assay: log2 fold change, soluble protein after heating vs DMSO (PISA); higher = thermal stabilisation; K562 cells, 10 uM, 30 min; active = over 0.2 and 3.5 SD of the protein, either way, in both replicates (recomputed)
In short: (§1)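 K562 cells at 2×10^6 cells/mL were treated with 10 μM compound for 30 min. Aliquots were heated for 3 min across 48°C-58°C, pooled, and extracted in PBS with 0.5% NP-40 at 4°C; soluble protein was the supernatant after 21,000xg for 90 min. Soluble protein was quantified by TMTpro 16plex LC-MS/MS with channel sums equalised, and reported as log2 fold change in thermal stability against DMSO controls, with values from duplicates.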

log2 fold change, inactive:
GGNBP2 (UniProt Q9H3C7) 0.036
GAB1 isoform 2 (UniProt Q13480) 0.024
FPGT (UniProt O14772) -0.01
GALK2 (UniProt Q01415) 0.009
G3BP2 (UniProt Q9UN86) -0.028
GEMIN4 (UniProt P57678) -0.268
FUNDC2 (UniProt Q9BWH2) -0.046
FXN (UniProt Q16595) -0.003
FRRS1 (UniProt Q6ZNA5) 0.101
GGPS1 (UniProt O95749) 0.061
GGH (UniProt Q92820) 0.011
GFPT1 (UniProt Q06210) -0.059
GAPDH (UniProt P04406) 0.076
GCLC (UniProt P48506) -0.038
FUBP1 (UniProt Q96AE4) -0.002
GCHFR (UniProt P30047) 0.239
GART (UniProt C9JZG2) -0.309
GALNT6 (UniProt Q8NCL4) 0.122
FTSJ1 (UniProt Q9UET6) -0.043
G3BP1 (UniProt Q13283) -0.07
GANAB isoform 2 (UniProt Q14697) -0.039
FSCN1 (UniProt Q16658) 0.017
FXR2 (UniProt P51116) -0.052
FUT11 (UniProt Q495W5) 0.368
FYCO1 isoform 4 (UniProt Q9BQS8) -0.095
GFM1 (UniProt Q96RP9) -0.138
GALM (UniProt Q96C23) -0.005
FTH1 (UniProt P02794) 0.015
GGCX (UniProt P38435) -0.24
GGA3 (UniProt Q9NZ52) 0.049
FRG1 (UniProt Q14331) 0.1
GHITM (UniProt Q9H3K2) -0.082
GFER (UniProt P55789) -0.213

compound: CC(C)C[C@@H](C=O)NC(=O)[C@H](CC(C)C)NC(=O)[C@H](CC(C)C)NC(=O)OCc1ccccc1; assay: as above
In short: as §1

log2 fold change, inactive:
GGNBP2 (UniProt Q9H3C7) 0.22
GAB1 isoform 2 (UniProt Q13480) 0.065
FPGT (UniProt O14772) -0.025
GALK2 (UniProt Q01415) -0.03
G3BP2 (UniProt Q9UN86) 0.064
GEMIN4 (UniProt P57678) 0.147
FUNDC2 (UniProt Q9BWH2) 0.019
FXN (UniProt Q16595) -0.07
FRRS1 (UniProt Q6ZNA5) 0.006
GGPS1 (UniProt O95749) -0.015
GGH (UniProt Q92820) -0.002
GFPT1 (UniProt Q06210) -0.062
GAPDH (UniProt P04406) -0.045
GCLC (UniProt P48506) 0.025
FUBP1 (UniProt Q96AE4) 0.041
GCHFR (UniProt P30047) -0.069
GART (UniProt C9JZG2) -0.128
GALNT6 (UniProt Q8NCL4) 0.094
FTSJ1 (UniProt Q9UET6) -0.05
G3BP1 (UniProt Q13283) 0.1
GANAB isoform 2 (UniProt Q14697) 0.012
FSCN1 (UniProt Q16658) -0.024
FXR2 (UniProt P51116) 0.246
FUT11 (UniProt Q495W5) 0.037
FYCO1 isoform 4 (UniProt Q9BQS8) 0.187
GFM1 (UniProt Q96RP9) 0.021
GALM (UniProt Q96C23) 0.025
FTH1 (UniProt P02794) 0.14
GGCX (UniProt P38435) 0.002
GGA3 (UniProt Q9NZ52) -0.049
FRG1 (UniProt Q14331) 0.111
GHITM (UniProt Q9H3K2) -0.002
GFER (UniProt P55789) 0.088

compound: CC(C)N(C[C@H]1O[C@@H](n2cnc3c(N)ncnc32)[C@H](O)[C@@H]1O)[C@H]1C[C@@H](CCc2nc3cc(C(C)(C)C)ccc3[nH]2)C1 [pinometostat]; assay: as above
In short: as §1

log2 fold change, inactive:
GGNBP2 (UniProt Q9H3C7) 0.16
GAB1 isoform 2 (UniProt Q13480) 0.052
FPGT (UniProt O14772) 0.01
GALK2 (UniProt Q01415) -0.034
G3BP2 (UniProt Q9UN86) 0.249
GEMIN4 (UniProt P57678) 0.407
FUNDC2 (UniProt Q9BWH2) -0.017
FXN (UniProt Q16595) -0.025
FRRS1 (UniProt Q6ZNA5) -0.024
GGPS1 (UniProt O95749) -0.046
GGH (UniProt Q92820) -0.022
GFPT1 (UniProt Q06210) -0.025
GAPDH (UniProt P04406) -0.099
GCLC (UniProt P48506) -0.001
FUBP1 (UniProt Q96AE4) -0.049
GCHFR (UniProt P30047) -0.002
GART (UniProt C9JZG2) -0.041
GALNT6 (UniProt Q8NCL4) -0.084
FTSJ1 (UniProt Q9UET6) 0.076
G3BP1 (UniProt Q13283) 0.165
GANAB isoform 2 (UniProt Q14697) 0.004
FSCN1 (UniProt Q16658) -0.068
FXR2 (UniProt P51116) 0.343
FUT11 (UniProt Q495W5) 0.001
FYCO1 isoform 4 (UniProt Q9BQS8) 0.096
GFM1 (UniProt Q96RP9) -0.049
GALM (UniProt Q96C23) -0.008
FTH1 (UniProt P02794) 0.024
GGCX (UniProt P38435) 0.1
GGA3 (UniProt Q9NZ52) 0.029
FRG1 (UniProt Q14331) 0.158
GHITM (UniProt Q9H3K2) -0.019
GFER (UniProt P55789) 0
